*: point of attachment. Tos = Cc1ccc(S(=O)(=O)*)cc1; ClZ = O=C(OCc1ccccc1Cl)*; Cbz = O=C(OCc1ccccc1)*; Boc = CC(C)(C)OC(=O)*; OcHex = C1CCC(O*)CC1; OBn = c1ccc(CO*)cc1; Bn = c1ccc(C*)cc1; βAla = NCCC(=O)O
Test: general procedure: solution-phase peptide synthesis; azide method (isoamyl nitrite/HCl-dioxane); OSu active esters; TFA-ONp (p-nitrop)
Conditions: coupling step

| Substance | step yield |
| --- | --- |
| Boc-QE(OcHex)LGK(ClZ)LQT(Bn)PQT(Bn)D(OcHex)VGAGT(Bn)P-NH2 | 95.4% |
| Boc-K(Cbz)LS(Bn)QE(OcHex)LNK(ClZ)LQT(Bn)PQT(Bn)D(OcHex)VGAGT(Bn)P-NH2 | 88.0% |
| Boc-Gln-Glu(OcHex)-Leu-His(Tos)- Lys(Cl-Z)-Leu-Gln-Thr(Bzl)-Pro-Arg(Tos)-Thr(Bzl)-Asp(OcHex)-Val-Gly-Ala-Gly-Thr(Bzl)-Pro--NH2 | 91.4% |
| {Boc-βAla-βAla}-NLS(Bn)T(Bn)D-OEt | 98.8% |
| Boc-GLQT(Bn)PGT(Bn)D(OcHex)VGAGT(Bn)P-NH2 | 81.2% |
| Boc-QE(OcHex)LQK(ClZ)LQT(Bn)PNT(Bn)D(OcHex)VGAGT(Bn)P-NH2 | 80.8% |
| Boc-Gln-Glu(OcHex)-Leu-Tyr(Cl2-Bzl)-Lys(Cl-Z)-Leu-Gln-Thr(Bzl)-Pro-Gln-Thr(Bzl)-Asp(OcHex)-Val-Gly-Ala-Gly-Thr(Bzl)-Pro--NH2 | 94.1% |
| Boc-E(OBn)LHK(ClZ)LQT(Bn)PGT(Bn)D(OcHex)VGAGT(Bn)P-NH2 | 70.4% |
| Boc-LK(ClZ)LQT(Bn)PQT(Bn)D(OcHex)VGAGT(Bn)P-NH2 | 80.8% |
| Boc-Gln-Thr(Bzl)-Tyr(Cl2 -Bzl)-Pro-Arg(Tos)-Thr(Bzl)-Asp(OBzl)-Val-Gly-Ala-Gly-Thr(Bzl)-Pro--NH2 | 97.3% |
| Boc-NK(ClZ)LQT(Bn)LPQT(Bn)D(OcHex)VGAGT(Bn)P-NH2 | 92.3% |
| Boc-Leu-His(Tos)-Lys(Cl-Z)-Leu-Gln-Thr(Bzl)-Pro-Arg(Tos)-Thr(Bzl)-Asp(OcHex)-Val-Gly-Ala-Gly-Thr(bzl)-Pro--NH2 | 88.2% |
| Boc-K(Cbz)LS(Bn)QE(OcHex)LHK(ClZ)QT(Bn)PQT(Bn)D(OBn)VGAGT(Bn)P-NH2 | 88.3% |
| Boc-GK(ClZ)LQT(Bn)PQT(Bn)D(OcHex)VGAGT(Bn)P-NH2 | 62.9% |
| Boc-QE(OcHex)LLK(ClZ)LQT(Bn)PR(Tos)T(Bn)D(OcHex)VGAGT(Bn)P-NH2 | 96.1% |
| Boc-QE(OEt)LHK(ClZ)LQT(Bn)PR(Tos)T(Bn)D(OEt)VGAGT(Bn)P-NH2 | 90.9% |
| Boc-LHK(ClZ)LQT(Bn)PQT(Bn)D(OBn)VGAGT(Bn)P-NH2 | 91.3% |
| Boc-Thr(Bzl)-Pro-Arg(Tos)-Thr(Bzl)-Asp(OEt)-Val-Gly-Ala-Gly-Thr(Bzl)-Pro-- NH2 | 88.5% |
| Boc-S(Bn)QE(OcHex)L-OH | 44.3% |
| Boc-NNLQT(Bn)PQT(Bn)D(OcHex)VGAGT(Bn)P-NH2 | 78.1% |
| Boc-Gln-Glu(OcHex)-Leu-His(Tos)-Lys(Cl-Z)-Leu-Gln-Thr(Bzl)-Pro-Thr(Bzl)-Asp(OBzl)-Val-Gly-Ala-Gly-Thr(Bzl)-Pro--NH2 | 94.7% |
| Boc-GLS(Bn)QE(OBn)LHGLQT(Bn)PGT(Bn)D(OcHex)VGAGT(Bn)P-NH2 | 78.9% |
| Boc-K(Cbz)LS(Bn)QE(OcHex)LHGLQT(Bn)PR(Tos)T(Bn)D(OcHex)VGAGT(Bn)P-NH2 | 99.5% |

| Substance | step yield |
| --- | --- |
| Boc-Lys(Bz)-Leu-Ser(Bzl)-Gln-Glu(OBzl)-Leu-His-Lys(Bz)-Leu-Gln-Thr(Bzl)-Tyr(Bzl)-Pro-Arg(Tos)-Thr(Bzl)-Asp(OBzl)-Val-Gly-Ala-Gly-Thr(Bzl)-Pro--NH2 | 98.9% |
| Boc-E(OBn)LHGLQT(Bn)PGT(Bn)D(OcHex)VGAGT(Bn)P-NH2 | 78.9% |
| Boc-D(OcHex)K(ClZ)LQT(Bn)PQT(Bn)D(OcHex)VGAGT(Bn)P-NH2 | 71.7% |
| Boc-E(OBn)LHK(ClZ)LQT(Bn)LPR(Tos)T(Bn)D(OcHex)VGAGT(Bn)P-NH2 | 73.0% |
| Boc-Lys(Bz)-Leu-Ser(Bzl)-Gln-Glu(OBzl)-Leu-His-Lys(Cl-Z)-Leu-Gln-Thr(Bzl)- Tyr(Bzl)-Pro-Arg(Tos) Thr(Bzl)-Asp(OBzl)-Val-Gly-Ala-Gly-Thr(Bzl)-Pro--NH2 | 80.6% |
| Boc-Acp-Asn-Leu-Ser(Bzl)-Thr(Bzl)-Glu--OCH3 | 86.7% |
| Boc-LHK(ClZ)LQT(Bn)PGT(Bn)D(OcHex)VGAGT(Bn)P-NH2 | 87.6% |
| Boc-T(Bn)D(OEt)VGAGT(Bn)P-NH2 | 81.4% |
| Boc-Abu-Asn-Leu-Ser(Bzl)-Thr(Bzl)-Cec--OCH3 | 67.9% |
| Boc-Lys(Z)-Leu-Ser(Bzl)-Gln-Glu(OcHex)-Leu-His(Tos)-Lys(Cl-Z)-Leu-Gln-Thr(Bzl)-Pro-Arg(Tos)-Thr(Bzl)-Asp(OcHex)-Val-Gly-Ala-Gly-Thr(Bzl)-Pro--NH | 95.0% |
| Boc-Lys(Z)-Leu-Ser(Bzl)-Gln-Glu(OcHex)-Leu-Lys(Cl-Z)-Leu-Gln-Thr(Bzl)-Tyr(Bzl)-Pro-Arg(Tos)-Thr(Bzl)-Asp(OBzl)-Val-Gly-Ala-Gly-Ala-Gly-Thr(Bzl)-Pro-- NH2 | 96.8% |
| Boc-QE(OcHex)LD(OcHex)K(ClZ)LQT(Bn)PR(Tos)T(Bn)D(OcHex)VGAGT(Bn)P-NH2 | 93.1% |
| Boc-QK(ClZ)LQT(Bn)PR(Tos)T(Bn)D(OcHex)VGAGT(Bn)P-NH2 | 98.0% |
| Boc-K(Cbz)LS(Bn)QE(OcHex)LLK(ClZ)LQT(Bn)PQT(Bn)D(OcHex)VGAGT(Bn)P-NH2 | 92.0% |
| Boc-Lys(COCH3)-Leu-Ser(Bzl)-Gln-Glu(OcHex)-Leu-Gly-Lys(Cl-Z)-Leu-Gln- Thr(Bzl)-Pro-Gln-Thr(Bzl)-Asp(OcHex)-Val-Gly-Ala-Gly-Thr(Bzl)-Pro--NH2 | 88.6% |
| Boc-LK(ClZ)LQT(Bn)PR(Tos)T(Bn)D(OcHex)VGAGT(Bn)P-NH2 | 95.5% |
| Boc-His(Tos)-Lys(Cl-Z)-Leu-Gln-Thr(Bzl)-Pro-Asn-Thr(Bzl)-Asp(OcHex)-Val-Gly-Ala-Gly-Thr(Bzl)-Pro--NH2 | 83.5% |
| Boc-Gly-Lys(Cl-Z)-Leu-Gln-Thr(Bzl)-Tyr(Cl-Bzl)-Pro-Gln-Thr(Bzl)-Asp(OcHex)-Val-Gly-Ala-Gly-Thr(Bzl)-Pro--NH2 | 91.5% |
| Boc-K(ClZ)LS(Bn)QE(OcHex)LGK(ClZ)LQT(Bn)PR(Tos)T(Bn)D(OcHex)VGAGT(Bn)P-NH2 | 93.8% |
| Boc-His(Tos)-Lys(Cl-Z)-Leu-Gln-Thr(Bzl)-Pro-Arg(Tos)-Thr(Bzl)-Asp(OEt)-Val-Gly-Ala-Gly-Thr(Bzl)-Pro--NH2 | 87.5% |
| Boc-Lys(Cl-Z)-Leu-Ser(Bzl)-Gln-Glu(OcHex)-Leu-His(Tos)-Lys(Cl-Z)-Gln-Thr(Bzl)-Tyr(Cl2 -Bzl)-Pro-Arg(Tos)-Thr(Bzl)-Asp(OBzl)-Val-Gly-Ala-Gly-Thr(Bzl)-Pro--NH2 | 86.4% |
| Boc-T(Bn)PQT(Bn)D(OBn)VGAGT(Bn)P-NH2 | 85.4% |
| Boc-Lys(Cl-Z)-Leu-Gln-Thr(Bzl)-Tyr(Cl2-Bzl)-Pro-Gln-Thr(Bzl)-Asp(OcHex)-Val-Gly-Ala-Gly-Thr(Bzl)-Pro--NH2 | 88.2% |

| Substance | step yield |
| --- | --- |
| Boc-Lys(Cl-Z)-Leu-Ser(Bzl)-Gln-Glu(OcHex)-Leu-His(Tos)-Lys(Cl-Z)-Leu-Gln-Thr(Bzl)-Pro-Arg(Tos)-Thr(Bzl)-Asp(OEt)-Val-Gly-Ala-Gly-Thr(Bzl)-Pro--NH2 | 90.3% |
| Boc-β-Ala-Asn-Leu-Ser(Bzl)-Thr(Bzl)-Cec--OCH3 | 60.9% |
| Boc-D(OcHex)K(ClZ)LQT(Bn)PR(Tos)T(Bn)D(OcHex)VGAGT(Bn)P-NH2 | 98.3% |
| Boc-E(OEt)LHK(ClZ)LQT(Bn)PR(Tos)T(Bn)D(OEt)VGAGT(Bn)P-NH2 | 96.3% |
| Boc-E(OcHex)LHK(ClZ)QT(Bn)PQT(Bn)D(OBn)VGAGT(Bn)P-NH2 | 91.0% |
| Boc-GS(Bn)NL-OEt | 87.7% |
| Boc-Ser(Bzl)-Asn-Leu-Ser(Bzl)-Thr(Bzl)-Cpc--OCH3 | 73.6% |
| {Boc-βAla-βAla}-Asn-Leu-OEt | 62.0% |
| Boc-R(Tos)T(Bn)D(OEt)VGAGT(Bn)P-NH2 | 94.8% |
| Boc-Lys(Z)-Leu-Ser(Bzl)-Gln-Glu(OcHex)-Leu-His(Tos)-Lys(Cl-Z)-Leu-Gln-Thr(Bzl)-Tyr(Cl2-Bzl)-Pro-Gln-Thr(Bzl)-Asp(OcHex)-Val-Gly-Ala-Gly-Thr(Bzl)-Pro--NH2 | 91.3% |
| Boc-QE(OcHex)LHK(ClZ)LQT(Bn)PQT(Bn)D(OBn)VGAGT(Bn)P-NH2 | 90.3% |
| Boc-QT(Bn)D(OcHex)VGAGT(Bn)P-NH2 | 92.1% |
| Boc-Gln-Glu(OcHex)-Leu-His(Tos)-Lys(Cl-Z)-Leu-Gln-Thr(Bzl)-D-Tyr(Cl2 -Bzl)-Pro-Arg(Tos)-Thr(Bzl)-Asp(OcHex)-Val-Gly-Ala-Gly-Thr(Bzl)-Pro--NH2 | 98.2% |
| Boc-K(ClZ)LQT(Bn)PNT(Bn)D(OcHex)VGAGT(Bn)P-NH2 | 87.4% |
| Boc-Gly-Ser(Bzl)-Asn-Leu-Ser(Bzl)-Thr(BzI)-Glu--OBzl | 79.4% |
| Boc-K(ClZ)LQT(Bn)LPR(Tos)T(Bn)D(OcHex)VGAGT(Bn)P-NH2 | 67.0% |
| Boc-Lys(Cl-Z)-Gln-Thr(Bzl)-Tyr(Cl2 -Bzl)-Pro-Arg(Tos)-Thr(Bzl)-Asp(OBzl)-Val-Gly-Ala-Gly-Thr(Bzl)-Pro--NH2 | 93.0% |
| Boc-Lys(Bz)-Leu-Gln-Thr(Bzl)-Tyr(Bzl)-Pro-Arg(Tos)-Thr(Bzl)-Asp(Obzl)-Val- Gly-Ala-Gly-Thr(Bzl)-Pro--NH2 | 95.3% |
| Boc-His(Tos)-Lys(Cl-Z)-Leu-Gln-Thr(Bzl)-D-Tyr(Cl2 -Bzl)-Pro-Arg(Tos)-Thr(Bzl)-Asp(OcHex)-Val-Gly-Ala-Gly-Thr(Bzl)-Pro--NH2 | 89.0% |
| Boc-Glu(OcHex)-Leu-His(Tos)-Lys(Cl-Z)-Leu-Gln-Thr(Bzl)-D-Tyr(Cl2 -Bzl)-Pro-Arg(Tos)-Thr(Bzl)-Asp(OcHex)-Val-Gly-Ala-Gly-Thr(Bzl)-Pro--NH2 | 92.9% |
| Boc-QK(ClZ)LQT(Bn)PNT(Bn)D(OcHex)VGAGT(Bn)P-NH2 | 83.2% |
| Boc-QE(OcHex)LNNLQT(Bn)PQT(Bn)D(OcHex)VGAGT(Bn)P-NH2 | 94.5% |
| Boc-E(OcHex)LHGLQT(Bn)PR(Tos)T(Bn)D(OcHex)VGAGT(Bn)P-NH2 | 91.1% |

Same assay, conditions: cyclisation step

| Substance | cyclisation yield |
| --- | --- |
| -COCH2 CH2 Co-Asn-Leu-Ser(Bzl)-Thr(Bzl)-Lys--OCH3 | 34.9% |

Same assay, conditions: late stage modification step

| Substance | step yield |
| --- | --- |
| Boc-Abu-Ser(Bzl)-Asn-Leu--N2 H3 | 76.1% |
